Experimental data as given in article PMC3229523, “Identification of Lactoferricin B Intracellular Targets Using an Escherichia coli Proteome Chip” (PLoS ONE, 2011).
Results are given in words; binding and its absence hold for the method and conditions named. Binding calls can cover weak binding; strength is not graded here.

Sequences of proteins named here, by UniProt entry; tags and fusion partners are left off. A change or cut given only in a name is not applied to a line headed by its entry. Residues count along the entry.
UniProt P09549: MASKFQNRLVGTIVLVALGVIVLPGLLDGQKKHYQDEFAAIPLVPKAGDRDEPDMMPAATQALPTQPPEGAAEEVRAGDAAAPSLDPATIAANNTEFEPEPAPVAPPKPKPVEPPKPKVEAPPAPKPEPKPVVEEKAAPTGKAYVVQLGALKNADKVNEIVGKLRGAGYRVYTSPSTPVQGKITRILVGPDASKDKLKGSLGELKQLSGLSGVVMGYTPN
UniProt P24627, residues 36-60: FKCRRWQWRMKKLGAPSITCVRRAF

Target: DedD (E. coli K-12) (UniProt P09549)
Assay: peptide or protein array; E. coli proteome chip: purified His-tagged proteins printed in duplicate on Fullmoon slides, blocked with 1% BSA; 10 nM N-terminal biotinylated LfcinB with 1% BSA, room temperature, 1 h; detected with DyLight 649-labeled streptavidin, ratio to DyLight 549-labeled anti-His antibody; ProCAT normalisation, local cut-off; triplicate chips; both purified

N-terminal biotinylated Lactoferricin B (from UniProt P24627 36-60) (peptide)
binding: binds
